Experimental data published in US7671009B2 (DSM IP Assets B.V., priority 2001, dated 2010).

Columns and labels:
[1] = general procedure: Fmoc solid-phase peptide synthesis; H-Ser(tBu)-chlorotrityl resin; TBTU, collidin; settings: whole synthesis, scale 14.0 mmol, TFA
[2] = general procedure: Fmoc solid-phase peptide synthesis; H-Ser(tBu)-chlorotrityl resin (0.75 mmol/g); TBTU, collidin; settings: late stage modification step, from 5a, TFA

Substance	isolated mass [1] [g]	isolated yield [1] [%]	step yield [2] [%]
H-Lys(Boc)-Thr(tBu)-Ser(tBu)-Orn(Boc)-Ser(tBu)-OH×TFA	9.3	64	–
H-Lys-Thr-Ser-Orn-Ser-OH×3TFA	–	–	76
